Assay results from US20090202543A1 (ONCOTHERAPY SCIENCE, published 2009).
These are yes or no findings as the source states them, for the method shown. In cells and extracts the contact can be indirect. Some entries that bind do so weakly or less than the wild type. Tags and fused reporters may be left off the sequences shown.

Target: T1, B7330N-HA (HA-tagged B7330N expressed from pCAGGS-B7330N-HA in COS-7 cells) (human) (UniProt Q8NCL4)
T1 sequence (chain, N-glycosylated at Asn-476): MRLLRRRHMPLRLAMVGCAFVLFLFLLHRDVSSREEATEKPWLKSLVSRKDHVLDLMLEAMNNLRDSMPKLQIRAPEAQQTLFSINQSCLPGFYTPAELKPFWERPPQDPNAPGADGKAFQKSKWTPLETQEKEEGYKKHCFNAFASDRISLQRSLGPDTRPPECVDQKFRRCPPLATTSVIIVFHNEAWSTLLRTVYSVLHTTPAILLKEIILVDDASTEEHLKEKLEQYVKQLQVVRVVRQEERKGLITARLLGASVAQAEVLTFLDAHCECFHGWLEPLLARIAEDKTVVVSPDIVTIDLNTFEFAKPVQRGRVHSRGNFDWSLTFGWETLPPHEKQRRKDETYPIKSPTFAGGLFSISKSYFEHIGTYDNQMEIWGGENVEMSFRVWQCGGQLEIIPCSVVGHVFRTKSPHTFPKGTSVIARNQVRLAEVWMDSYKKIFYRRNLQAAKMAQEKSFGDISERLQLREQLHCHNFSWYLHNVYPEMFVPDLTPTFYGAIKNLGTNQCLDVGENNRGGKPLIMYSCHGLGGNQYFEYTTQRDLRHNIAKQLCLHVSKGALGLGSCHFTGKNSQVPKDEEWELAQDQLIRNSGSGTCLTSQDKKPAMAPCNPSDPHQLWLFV
Assay: co-immunoprecipitation from co-transfected COS-7 cells, anti-HA pull-down

B1: B7330N-myc (myc-tagged B7330N expressed from pcDNA3.1-B7330N-myc in COS-7 cells) (enzyme, not shown: small tags and cut ends)
chain: MRLLRRRHMPLRLAMVGCAFVLFLFLLHRDVSSREEATEKPWLKSLVSRKDHVLDLMLEAMNNLRDSMPKLQIRAPEAQQTLFSINQSCLPGFYTPAELKPFWERPPQDPNAPGADGKAFQKSKWTPLETQEKEEGYKKHCFNAFASDRISLQRSLGPDTRPPECVDQKFRRCPPLATTSVIIVFHNEAWSTLLRTVYSVLHTTPAILLKEIILVDDASTEEHLKEKLEQYVKQLQVVRVVRQEERKGLITARLLGASVAQAEVLTFLDAHCECFHGWLEPLLARIAEDKTVVVSPDIVTIDLNTFEFAKPVQRGRVHSRGNFDWSLTFGWETLPPHEKQRRKDETYPIKSPTFAGGLFSISKSYFEHIGTYDNQMEIWGGENVEMSFRVWQCGGQLEIIPCSVVGHVFRTKSPHTFPKGTSVIARNQVRLAEVWMDSYKKIFYRRNLQAAKMAQEKSFGDISERLQLREQLHCHNFSWYLHNVYPEMFVPDLTPTFYGAIKNLGTNQCLDVGENNRGGKPLIMYSCHGLGGNQYFEYTTQRDLRHNIAKQLCLHVSKGALGLGSCHFTGKNSQVPKDEEWELAQDQLIRNSGSGTCLTSQDKKPAMAPCNPSDPHQLWLFV
binding: binds
